Some of the results follow. The main result of the screen is listed elsewhere. These columns were measured beside it and carry no call. Most of these compounds were active or inconclusive in the main read-out, so they are no random draw. The note in brackets gives the kind of curve behind each potency; many fits are weak.
Assay: qHTS Assay for Lipid Storage Modulators in Drosophila S3 Cells;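 for cell number change: cells counted by Cell Tracker Red CMTPX staining in the red channel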
Conditions: BODIPY lipid droplet fluorescence, 18-24 h; for cell number change: measured here: cell count max response, cells fed with added oleic acid
How it was run: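 Laser-scanning cytometry quantifies lipid droplet accumulation (500–530 nm total intensity; droplet/cell object ratio) in oleic acid-fed (400 uM added) Drosophila S3 cells treated with a concentration series. 20 uM Triacsin C defined 100% inhibition.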

[1] = measured here: cell number channel AC50, cells fed with added oleic acid
[2] = measured here: lipid fluorescence (Fed channel) AC50, cells fed with added oleic acid

SMILES	cell number change	AC50 [1]	AC50 [2]
O=c1cnnc(N/N=C/c2cccs2)[nH]1	53%	29.1 µM [rising, single point]	–
CC1=C(C(=O)Nc2ccccc2)C(c2ccco2)C(C#N)=C(SCC(N)=O)N1 (stereo unspecified)	105%	0.651 µM [rising, single point]	1.3 µM [rising, full curve]
CCOC(=O)c1c(S(=O)(=O)N2CCC(C)CC2)c(C)n(C)c1C	–	–	0.58 µM [falling, single point]
O=C(OCC(=O)N1CCN(C(=O)c2ccco2)CC1)c1cccc(S(=O)(=O)N2CCc3ccccc32)c1	-37.6%	–	0.259 µM [falling, full curve]
CN1CC(=O)N/C1=N\C(=O)Nc1ccc(O)cc1	24.8%	4.11 µM [rising, full curve, poor fit]	23.1 µM [rising, single point]
COc1ccc(CC(=O)Nc2ccc(S(=O)(=O)Nc3onc(C)c3C)cc2)cc1OC	-9.52%	–	–
CCN(CC)CCC(c1cc(OC)c(OC)c(OC)c1)c1c(OC)cc(OC)c2c(-c3ccccc3)cc(=O)oc12 (stereo unspecified)	2.05%	–	2.06 µM [rising, full curve, poor fit]
Cc1cc(NC(=O)C(C)SCC(=O)Nc2cc(Cl)ccc2N2CCN(C)CC2)no1 (stereo unspecified)	–	–	0.00517 µM [falling, full curve, poor fit]
CCc1nnc(NC(=O)CSc2nc(-c3ccccc3)nc3ccccc23)s1	13.5%	–	29.1 µM [rising, partial curve, poor fit]
Cc1cc(C)n(CC(=O)N2c3ccccc3Sc3ccc(C(F)(F)F)cc32)n1	39.3%	9.2 µM [rising, partial curve]	3.26 µM [rising, single point]
Cn1c(=O)[nH]c(=O)c2c1nc(Br)n2CCCCSc1nc2ccccc2o1	9.37%	–	0.731 µM [rising, single point]
N#CC1(NC(=O)COC(=O)/C=C/c2ccc3ccccc3n2)CCCCC1	8.11%	–	0.0058 µM [rising, full curve, poor fit]
CCn1c(SCC(=O)c2cccs2)nnc1-c1ccco1	0.343%	–	0.116 µM [falling, full curve, poor fit]
Cc1ccccc1CSc1nnc(NC(=O)C2COc3ccccc3O2)s1 (stereo unspecified)	1.53%	–	0.103 µM [falling, partial curve, poor fit]
COCCNc1ccc(S(=O)(=O)N2CCCC2)cc1[N+](=O)[O-]	–	1.3 µM [falling, single point]	–
Cc1ccc2c(c1)C1CN(C)CCC1N2C(=S)NC(=O)c1ccc(Cl)cc1Cl (stereo unspecified)	14.4%	–	8.2 µM [rising, partial curve, poor fit]
CSc1cccc(NC(=O)CNC(=O)c2ccc3c(c2)OCO3)c1	–	2.59 µM [rising, partial curve]	0.651 µM [rising, partial curve]
COc1ccc(Cl)cc1NC(=O)C(C)N1CCc2ccccc21 (stereo unspecified)	4.96%	0.092 µM [falling, full curve, poor fit]	–

A different layout for some results above:
SMILES,cell number change,AC50 [1],AC50 [2]
CC1=C(C(=O)Nc2ccccc2)C(c2ccco2)C(C#N)=C(SCC(N)=O)N1 (stereo unspecified),105%,"0.651 µM [rising, single point]","1.3 µM [rising, full curve]"
CCn1c(SCC(=O)c2cccs2)nnc1-c1ccco1,0.343%,–,"0.116 µM [falling, full curve, poor fit]"

Remaining list, next part:

SMILES	cell number change	AC50 [1]	AC50 [2]
CC1(C)CC2CC(C)(CN2C(=O)COC(=O)c2ccc(Cl)cc2N)C1 (stereo unspecified)	28.1%	3.66 µM [rising, full curve, poor fit]	–
Cc1cc(NC(=O)c2cncc(Br)c2)no1	21%	–	6.51 µM [falling, single point]
COCC(C)NC(=O)CSc1nc2cc(S(=O)(=O)N3CCCCC3)ccc2o1 (stereo unspecified)	-1.9%	–	6.51 µM [rising, single point]
O=C(Nc1cccc(S(=O)(=O)N2CCCC2)c1)c1ccncc1	-21.8%	–	16.4 µM [falling, partial curve]
O=C(NCc1cccnc1)c1cc([N+](=O)[O-])ccc1N1CCOCC1	12.1%	–	0.00461 µM [falling, full curve, poor fit]
Cc1c(Cl)cccc1Nc1ncccc1C(=O)OCC(O)CO (stereo unspecified)	9.76%	–	1.03 µM [rising, partial curve]
Cc1cc(C)cc(-n2c(C)cc(/C=N/NC(=O)c3cccc([N+](=O)[O-])c3C)c2C)c1	–	0.116 µM [rising, single point]	–
COc1ccc(OC(=O)CCN2C(=O)C3C4C=CC(C4)C3C2=O)cc1 (stereo unspecified)	-36.5%	13 µM [falling, single point]	–
Cc1cnc(C(=O)Nc2cccc3ncccc23)cn1	43.8%	9.2 µM [rising, partial curve]	0.116 µM [falling, single point]
CCC(C)NC(=O)c1ccc(NC(=O)CC2SC(N3CCCC3)=NC2=O)cc1 (stereo unspecified)	42.9%	0.231 µM [rising, full curve, poor fit]	5.8 µM [rising, partial curve, poor fit]
O=C(CSc1nccn1-c1ccc(F)cc1)NCc1ccc(F)cc1	29.5%	–	0.082 µM [rising, full curve, poor fit]
CCCCn1c(NC(=O)c2ccccc2Cl)c(C#N)c2nc3ccccc3nc21	-19.9%	–	20.6 µM [falling, partial curve]
O=C(NCc1ccc(Cl)cc1)c1cc2ccccc2oc1=O	-44.7%	13 µM [falling, partial curve, poor fit]	–
COc1cccc(N=Nc2c(C)[nH]n(-c3ccccc3)c2=O)c1	-41.9%	16.4 µM [falling, partial curve]	1.46 µM [falling, partial curve]
COCCN(C(=O)COC(=O)c1nc(Cl)ccc1Cl)c1c(N)n(Cc2ccccc2)c(=O)[nH]c1=O	75%	9.2 µM [rising, partial curve]	–
O=C(COc1ccc([N+](=O)[O-])cc1)Nc1ccc2c(c1)nc1n2CCOC1	10.7%	4.11 µM [rising, partial curve, poor fit]	–
Cc1cc(C)cc(NC(=O)c2ccc3c(c2)CCN3S(C)(=O)=O)c1	25.5%	–	18.4 µM [rising, partial curve]
